This is an account of results in PubChem BioAssay AID1487 (National Center for Advancing Translational Sciences (NCATS), 2009).

The other results are listed elsewhere or left out. The main result of the screen is listed elsewhere. These columns were measured beside it and carry no call. Most of these compounds were active or inconclusive in the main read-out, so they are no random draw. Potencies come from curve fits of mixed quality, noted in brackets.

The experiment is described as follows: qHTS Assay for Modulators of Lamin A Splicing. The note with it: HeLa LMNA splicing GFP/RFP minigene ratio, 48 h. An outline of the steps: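 Read-out is the ratio of GFP to DsRed2 object intensity, acquired by 488 nm laser-scanning cytometry on HeLa lamin A-EGFP minigene reporter cells. Compound incubation 48 hrs at 37 °C in Opti-MEM with 2% FBS; DMSO 0.5% final.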
On the technique in general: In qHTS, concentration-response curves come from the screen itself.

The mark [1] stands for this setting: measured here: RFP viability control channel.
Setting [2] is: measured here: GFP splicing reporter channel.

One may read the AC50 as the midpoint of the concentration-response curve, whichever way the signal moves. Take `CCOc1ncccc1C(=O)NCCN1C(=O)S/C(=C/c2cccs2)C1=O`: under setting [1], the AC50 is 4.47 µM [rising, partial curve]. On to `Cc1nc(N2CCN(Cc3nc4ccccc4[nH]3)CC2)c2oc3ccccc3c2n1`, for which the AC50 under setting [1] is 12.6 µM [rising, partial curve].

On to `O=C(NCCCn1ccnc1)c1cc2ccccc2oc1=O`, for which the AC50 under setting [1] was 0.112 µM [rising, full curve, poor fit]. In the case of `COc1ccc(N(CC(=O)Nc2cc(Cl)ccc2OC)S(=O)(=O)c2c(C)noc2C)cc1`, under setting [1], the AC50 is 35.5 µM [rising, single point]. As for `C=CCNC(=S)N/N=C/c1ccc(C)c([N+](=O)[O-])c1`, the AC50 is 22.4 µM [rising, single point] under setting [2] and 22.4 µM [rising, single point] under setting [1]. As for `Cc1c(N=Cc2cc(Br)cc(Br)c2O)cccc1C(=O)O`, the AC50 is, setting by setting: under setting [2], 31.6 µM [rising, single point]; under setting [1], 25.1 µM [rising, single point]. Regarding `CN1CCC/C1=C/C=C1\SC(=S)NC1=O`, the AC50 is 17.8 µM [falling, partial curve] under setting [2] and 11.2 µM [falling, partial curve] under setting [1]. For `CCOc1ccc(/C=N/n2c(SC)nnc(C(C)(C)C)c2=O)cc1`, the AC50 under setting [2] was 3.55 µM [rising, single point]. Still for that read-out and setting: in the case of `CC(C)(C)NC(=O)Cn1c(SCC(=O)N2CCCCCC2)nc2ccccc21` it was 0.0224 µM [rising, full curve, poor fit]. Regarding `CCc1nnc(NC(=O)CSc2nnc(-c3cccnc3)n2CC)s1`, under setting [1], the AC50 was 39.8 µM [falling, partial curve, poor fit]. For `CC(=O)c1ccc(NC(=O)CN2C(=O)c3cccnc3Sc3ccccc32)cc1`, the AC50 under setting [2] was 0.355 µM [falling, full curve, poor fit]. Regarding `CC1CN(C(=O)Nc2ccc3c(c2)OCCO3)CC(C)O1` (centres undefined), the AC50 under setting [1] is 0.0224 µM [falling, full curve, poor fit]. In the case of `C=C(C)COc1ccc(-c2n[nH]c(C)c2-c2ccc(OC)cc2)c(O)c1`, the AC50 runs as follows: under setting [2], 35.5 µM [falling, partial curve]; under setting [1], 0.282 µM [falling, partial curve]. In the case of `O=C(COc1ccccc1F)NC1CC(=O)N(c2ccc3c(c2)OCCO3)C1` (centres undefined), under setting [1], the AC50 was 3.16 µM [falling, single point]. In the case of `COCCn1c(SCC(=O)c2ccccc2)nc2c(c1=O)SC(C)C2` (centres undefined), the AC50 under setting [1] was 11.2 µM [rising, partial curve, poor fit]. For `O=C(N/N=C/c1cccs1)c1cc(C2CC2)nc2ccccc12`, the AC50 under setting [1] is 7.08 µM [rising, full curve].

Turning to `O=C(Nc1ncccc1O)c1cccc(S(=O)(=O)N2CCc3ccccc32)c1`, under setting [1], the AC50 is 22.4 µM [rising, partial curve].

In the case of `CCOc1ccc(NC(=O)CN2C(=O)CCSc3ccc(S(=O)(=O)N4CCCC4)cc32)cc1`, the AC50 is 2.51 µM [falling, partial curve, poor fit] under setting [2] and 35.5 µM [falling, partial curve, poor fit] under setting [1]. As to `Cc1oc(C(=O)Nc2ccc(C(=O)O)cc2)cc1COc1ccccc1`, the AC50 under setting [1] was 14.1 µM [falling, partial curve, poor fit].

Take `CC1CCC(C(C)C)C2=C1C(C#N)(C#N)C(C#N)(C#N)C(c1ccccc1)N2` (centres undefined): under setting [1], the AC50 was 1.58 µM [falling, partial curve, poor fit]. On the same count and under the same terms, in the case of `Cc1ccc(C2(CCNS(=O)(=O)c3ccc(C)cc3)CCOC(C(C)C)C2)cc1` (centres undefined) it was 35.5 µM [rising, single point]. `C=C(C)C1CC=C(C)/C(=N/NC(=O)COc2ccccc2Cl)C1` (centres undefined): the AC50 is, setting by setting: under setting [2], 25.1 µM [rising, single point]; under setting [1], 31.6 µM [rising, single point]. Consider `CN=c1scc(-c2cccs2)n1/N=C/c1ccccc1O`, for which the AC50 under setting [1] is 17.8 µM [rising, partial curve].

In the case of `COc1cccc(C(=O)Nc2ccc3nc(SCc4ccc(C)cc4)sc3c2)c1`, under setting [2], the AC50 is 3.98 µM [rising, full curve, poor fit].

As to `O=C(N/N=C/c1c[nH]c2ccccc12)c1cc(-c2ccc3ccccc3c2)n[nH]1`, the AC50 runs as follows: under setting [2], 35.5 µM [falling, single point]; under setting [1], 2.82 µM [rising, single point]. `C=CCn1c(COc2cccc(C)c2)nnc1SCn1nnc2ccccc2c1=O`: the AC50 by setting is: under setting [2], 14.1 µM [rising, single point]; under setting [1], 35.5 µM [rising, single point].

As to `CCC(Oc1ccccc1)C(=O)NC1C(=O)N2C1SC(C)(C)C2C(=O)O` (centres undefined), the AC50 reads like this: under setting [2], 0.0178 µM [falling, full curve]; under setting [1], 35.5 µM [rising, single point]. `Cc1cccc(C)c1NC(=O)CSCC(=O)c1ccc(O)c(O)c1`: under setting [2], the half-maximal activity concentration (AC50) was 35.5 µM [falling, single point]. In the case of `COc1ccc(NS(=O)(=O)c2ccc(SC)cc2)c(OC)c1`, under setting [1], the AC50 is 28.2 µM [rising, single point]. In the case of `COc1cc(OC)cc(C(=O)NCc2ccc3c(c2)CCN3C(=O)c2ccccc2)c1`, the AC50 was 35.5 µM [rising, single point] under setting [2] and 15.8 µM [rising, single point] under setting [1]. Take `Cc1ccc(N=C2SC(C(=O)Nc3ccc(OC(F)(F)F)cc3)C(N)=C2C(=O)Nc2c(C)cc(C)cc2C)cc1` (centres undefined): the AC50 runs as follows: under setting [2], 35.5 µM [falling, single point]; under setting [1], 35.5 µM [falling, single point]. In the case of `CC1CCCCN1CC(=O)Nc1ccccc1Sc1ccccc1` (centres undefined), the AC50 was 22.4 µM [rising, single point] under setting [2] and 35.5 µM [rising, partial curve, poor fit] under setting [1]. In the case of `NNC(=O)c1cc(Br)cs1`, the AC50 under setting [1] was 4.47 µM [rising, full curve]. As for `Nc1cc(Cl)ccc1C(=O)OCC(=O)NC(=O)NCc1ccccc1`, the AC50 under setting [2] was 14.1 µM [rising, single point] and the AC50 under setting [1] was 31.6 µM [rising, single point]. On to `O=c1cc(CO)oc(C(Nc2ccccn2)c2cccc(F)c2)c1O` (centres undefined), for which the AC50 under setting [1] is 11.2 µM [rising, single point]. Turning to `COc1cc(/C=N/N=C(/C(=O)c2ccccc2)c2ccccc2)cc(OC)c1O`, under setting [2], the AC50 is 5.62 µM [rising, partial curve, poor fit].
